The target of one assay is FLAG-TELO2 K749T (human) (UniProt Q9Y4R8). Description: co-IP; FLAG-tagged TELO2 precipitated with anti-DDDDK-tag (FLAG) antibody on protein G Sepharose, 4°C, 12 h; TELO2 IP buffer (40 mM HEPES-NaOH pH 7.5, 150 mM NaCl, 2 mM EDTA, 0.3% CHAPS); HEK293 cells with or without 10 μM ivermectin for 1 h; western blotting. On the technique in general: Immunoblotting shows a protein as a band on a membrane.

By UniProt entry, the sequences of proteins in these tests, tags left out. Where a name states a change or a piece, a line headed by the entry shows the natural chain unless it says otherwise.
UniProt Q9Y4R8: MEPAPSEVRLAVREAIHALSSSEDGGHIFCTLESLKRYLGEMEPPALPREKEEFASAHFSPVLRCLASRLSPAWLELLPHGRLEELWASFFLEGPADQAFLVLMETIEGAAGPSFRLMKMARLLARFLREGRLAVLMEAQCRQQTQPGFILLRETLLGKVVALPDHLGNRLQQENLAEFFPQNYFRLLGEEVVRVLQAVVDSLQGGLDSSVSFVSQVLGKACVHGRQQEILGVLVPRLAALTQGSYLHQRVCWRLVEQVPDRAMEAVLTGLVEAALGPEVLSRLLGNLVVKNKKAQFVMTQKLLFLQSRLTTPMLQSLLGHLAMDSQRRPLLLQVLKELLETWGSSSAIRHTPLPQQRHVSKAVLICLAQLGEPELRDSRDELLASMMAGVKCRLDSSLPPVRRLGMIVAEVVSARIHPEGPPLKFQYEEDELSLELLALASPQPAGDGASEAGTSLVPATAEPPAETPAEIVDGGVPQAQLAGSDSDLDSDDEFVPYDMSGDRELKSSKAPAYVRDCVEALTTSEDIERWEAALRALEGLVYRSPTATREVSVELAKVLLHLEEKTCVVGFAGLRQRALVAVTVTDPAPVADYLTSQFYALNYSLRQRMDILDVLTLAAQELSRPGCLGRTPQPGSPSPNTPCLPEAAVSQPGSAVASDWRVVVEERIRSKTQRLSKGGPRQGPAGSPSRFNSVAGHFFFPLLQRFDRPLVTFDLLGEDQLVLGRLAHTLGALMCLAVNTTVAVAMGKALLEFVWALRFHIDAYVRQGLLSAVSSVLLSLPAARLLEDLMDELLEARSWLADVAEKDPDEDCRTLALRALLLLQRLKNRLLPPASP
UniProt O43156: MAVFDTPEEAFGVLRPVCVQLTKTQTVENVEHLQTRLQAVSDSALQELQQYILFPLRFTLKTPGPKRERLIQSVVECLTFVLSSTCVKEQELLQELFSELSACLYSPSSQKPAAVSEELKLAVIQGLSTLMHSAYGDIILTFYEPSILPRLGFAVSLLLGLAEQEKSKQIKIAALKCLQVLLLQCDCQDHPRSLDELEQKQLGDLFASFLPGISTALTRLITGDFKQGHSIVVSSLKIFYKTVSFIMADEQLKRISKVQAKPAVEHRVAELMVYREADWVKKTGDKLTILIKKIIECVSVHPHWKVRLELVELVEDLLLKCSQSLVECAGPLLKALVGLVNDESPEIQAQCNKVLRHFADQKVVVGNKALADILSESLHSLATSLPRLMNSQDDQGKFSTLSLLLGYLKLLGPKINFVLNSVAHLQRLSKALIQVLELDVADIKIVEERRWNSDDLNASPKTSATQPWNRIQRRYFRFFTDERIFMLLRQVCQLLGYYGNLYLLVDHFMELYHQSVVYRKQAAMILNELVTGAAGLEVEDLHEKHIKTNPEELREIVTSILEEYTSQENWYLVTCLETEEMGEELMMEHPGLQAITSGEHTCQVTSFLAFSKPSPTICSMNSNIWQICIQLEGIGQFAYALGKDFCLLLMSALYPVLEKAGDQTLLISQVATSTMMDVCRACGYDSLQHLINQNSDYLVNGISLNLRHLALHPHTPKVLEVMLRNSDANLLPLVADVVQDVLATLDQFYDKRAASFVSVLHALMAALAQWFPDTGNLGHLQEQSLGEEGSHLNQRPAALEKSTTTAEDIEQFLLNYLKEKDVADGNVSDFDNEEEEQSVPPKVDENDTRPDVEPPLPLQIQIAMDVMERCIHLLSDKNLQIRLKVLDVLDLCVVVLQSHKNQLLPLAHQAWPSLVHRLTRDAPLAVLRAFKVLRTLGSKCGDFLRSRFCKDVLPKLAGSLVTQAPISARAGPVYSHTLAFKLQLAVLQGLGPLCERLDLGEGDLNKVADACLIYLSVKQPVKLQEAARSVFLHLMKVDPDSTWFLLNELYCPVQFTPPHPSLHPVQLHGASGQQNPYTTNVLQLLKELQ

The target of assay [1] is FLAG-tagged wild-type (WT) TELO2 (human) (UniProt Q9Y4R8). The description is as above.

These are yes or no findings as the source states them, for the method shown. In cells and extracts the contact can be indirect. Some results given as binding are weak or reduced against the parent protein; the word gives no strength.

For “TELO2-interacting protein 1 homolog (from UniProt O43156 1-1089)”, the binding result (in the assay with FLAG-TELO2 K749T (human); in assay [1]) was “binds” in each case.

The values are drawn from article PMC9072907.
